# Measured data: PubChem BioAssay AID1259254 (NCATS, 2017)
# Aim: 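Genome-wide screen for genes that prevent DNA re-replication in cancer cells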 (primary screen)
# System: human HCT116 colorectal cancer cells
# Reagents: single siRNA against human genes
# Duration: 3 days
# Measurement: 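Imaged Hoechst DNA stain sorts each cell into a cycle phase by DNA amount; per plate, G2 fraction set to 0% for non-targeting and 100% for GMNN siRNA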
# Direction: G2 robust z-score and G2 cells, % of GMNN control: higher = more G2 cells, more excess DNA replication; raw share of cells in G2: higher = larger share of cells with G2 DNA content
# Rule for the call: 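Active siRNAs have a G2 robust z of 5 or more median absolute deviations over the median, which in these data means about 38% or higher of GMNN control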
# This is a random part of about 59,000 reagents tested. Of all reagents, about 1,550 (2.6%) are marked active. 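G2 share is only a proxy for re-replication; each gene was hit by three separate siRNAs, and active genes were retested.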 The raw values are shown without normalisation. A number with no mark means an inactive call. The numbers tell different reagents against one gene apart. Not stated in the record: the amount of reagent.
gene symbol,siRNA no.,G2 robust z-score,"G2 cells, % of GMNN control",raw share of cells in G2 (%)
KIF1A (kinesin family member 1A),1,-0.14,1.98,5.78
KIF1A (kinesin family member 1A),2,0.492,6.43,6.39
KIF1A (kinesin family member 1A),3,-0.464,-0.294,4.62
NEXMIF (neurite extension and migration factor),1,-0.454,-0.226,3.91
NEXMIF (neurite extension and migration factor),2,0.63,7.4,6.5
NEXMIF (neurite extension and migration factor),3,-0.0131,2.88,5.35
NCKAP5 (NCK associated protein 5),1,-1.03,-4.26,2.52
NCKAP5 (NCK associated protein 5),2,-0.579,-1.1,2.78
NCKAP5 (NCK associated protein 5),3,0.4,5.78,6.52
ZP2 (zona pellucida glycoprotein 2),1,-0.205,1.53,4.83
ZP2 (zona pellucida glycoprotein 2),2,-0.273,1.05,6.04
ZP2 (zona pellucida glycoprotein 2),3,-1.31,-6.24,2.42
GAS8-AS1 (GAS8 antisense RNA 1),1,2.98,23.9,12.9
GAS8-AS1 (GAS8 antisense RNA 1),2,1.77,15.4,12.5
GAS8-AS1 (GAS8 antisense RNA 1),3,0.00128,2.98,4.69
KCNJ12 (potassium inwardly rectifying channel subfamily J member 12),1,1.15,11.1,9.31
KCNJ12 (potassium inwardly rectifying channel subfamily J member 12),2,2.31,19.2,11.3
KCNJ12 (potassium inwardly rectifying channel subfamily J member 12),3,-0.698,-1.95,3.62
CALB1 (calbindin 1),1,-0.412,0.0675,3.49
CALB1 (calbindin 1),2,-0.225,1.38,5.49
CALB1 (calbindin 1),3,-0.395,0.185,3.18
RSL24D1 (ribosomal L24 domain containing 1),1,0.43,5.99,6.14
RSL24D1 (ribosomal L24 domain containing 1),2,0.583,7.07,7.22
RSL24D1 (ribosomal L24 domain containing 1),3,-0.831,-2.88,2.34
AKAP10 (A-kinase anchoring protein 10),1,3.15,25.1,12.5
AKAP10 (A-kinase anchoring protein 10),2,-0.603,-1.27,5.86
AKAP10 (A-kinase anchoring protein 10),3,0.229,4.58,5.69
RTL4 (retrotransposon Gag like 4),1,-0.569,-1.03,3.63
RTL4 (retrotransposon Gag like 4),2,0.259,4.79,5.35
RTL4 (retrotransposon Gag like 4),3,0.649,7.53,7.22
DRAM1 (DNA damage regulated autophagy modulator 1),1,0.403,5.8,6.75
DRAM1 (DNA damage regulated autophagy modulator 1),2,0.652,7.56,7.27
DRAM1 (DNA damage regulated autophagy modulator 1),3,1.51,13.6,7.48
ANKRD13C (ankyrin repeat domain 13C),1,-0.342,0.561,4.29
ANKRD13C (ankyrin repeat domain 13C),2,-0.148,1.92,4.03
ANKRD13C (ankyrin repeat domain 13C),3,-0.6,-1.26,2.02
FZD5 (frizzled class receptor 5),1,3.64,28.6,16.1
FZD5 (frizzled class receptor 5),2,-0.426,-0.0309,4.51
FZD5 (frizzled class receptor 5),3,0.744,8.2,5.78
SLMAP (sarcolemma associated protein),1,0.213,4.47,7.11
SLMAP (sarcolemma associated protein),2,-0.0989,2.27,4.8
SLMAP (sarcolemma associated protein),3,-0.55,-0.905,3.03
ENO3 (enolase 3),1,3.18,25.3,14.4
ENO3 (enolase 3),2,-0.592,-1.2,3.23
ENO3 (enolase 3),3,5.07 (active),38.6,20
FAM120AOS (family with sequence similarity 120 member A opposite strand),1,-0.781,-2.53,2.7
FAM120AOS (family with sequence similarity 120 member A opposite strand),2,4.27,33,14
FAM120AOS (family with sequence similarity 120 member A opposite strand),3,-0.321,0.707,2.99
